1 molecule from US20060099686A1 (SCIL PROTEINS, published 2006) can be followed below.

The chains behind the UniProt entries cited, without tags or fusion partners. Residues count along the entry.
UniProt P02769, 25-607 limits assumed: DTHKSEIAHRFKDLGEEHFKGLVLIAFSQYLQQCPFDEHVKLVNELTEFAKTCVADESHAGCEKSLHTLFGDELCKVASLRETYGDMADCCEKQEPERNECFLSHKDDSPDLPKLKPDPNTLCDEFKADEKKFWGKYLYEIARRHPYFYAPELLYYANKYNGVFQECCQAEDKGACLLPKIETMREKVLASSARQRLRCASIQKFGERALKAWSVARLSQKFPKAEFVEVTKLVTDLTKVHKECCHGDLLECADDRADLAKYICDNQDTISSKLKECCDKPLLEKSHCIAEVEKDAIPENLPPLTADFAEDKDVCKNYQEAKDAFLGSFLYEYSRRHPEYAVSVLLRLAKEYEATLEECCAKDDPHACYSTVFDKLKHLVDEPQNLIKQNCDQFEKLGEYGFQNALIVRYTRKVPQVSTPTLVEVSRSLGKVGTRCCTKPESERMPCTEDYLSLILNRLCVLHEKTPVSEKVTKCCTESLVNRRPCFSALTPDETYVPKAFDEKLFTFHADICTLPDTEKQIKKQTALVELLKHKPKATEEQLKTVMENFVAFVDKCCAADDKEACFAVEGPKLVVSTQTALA

For this assay, the target named is T1, bovine serum albumin (bovine, UniProt P02769 25-607).
T1 construct: also called BSA
Put plainly: ELISA, BSA (carrier protein) coated on the microtiter plate, detection by Ni-NTA/POD, mean of three wells, A405.

B1: SPU-3-H13-O (designed binder)
chain: MGIGVKTLTGKTITLEVEPSDTIENVKAKIQDKEGIPPDQQRLAFAGRQLEDGLTLSDYNIFFVTNLHLALLLRALEHHHHHH
notes: Selected against hydrocortisone (a hapten); also called ubiquitin variation SPU-3-H13
Consider B1, for which the binding result is recorded as “no binding (tested: 4 µM)”.
